The whole screen tested about 310,000 compounds, of which about 17,000 (5.5%) were called active. The shares of active, inactive and inconclusive entries below differ from those in the screen. Calls come from the whole dose curve; as a rule, active = well fitted inhibition curve with a large enough effect; inconclusive = small, poorly fitted or top-dose-only effect, or effect the other way; inactive = no such curve, though single readings can be large or run the other way. Potencies beside an inconclusive call are fits to weak or partial responses and may not hold up. Where a structure was tested more than once in an assay, its records may differ in their call.
biological target: Nuclear receptor ROR-gamma (Mus musculus) (UniProt P51450); test: qHTS for inhibitors of ROR gamma transcriptional activity; settings: Drosophila S2 Gal4-RORgamma UAS-luciferase reporter, 20 h; activity change, negative = inhibition: at 53.6 µM (top of the series); note: nearly all actives have a fitted effect of over 60% in size
Summary of the method: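 Drosophila S2 cells stably expressing Gal4-DBD/mouse RORγ fusion under metallothionein promoter plus UAS-luciferase; compound 1 h, then 700 uM CuSO4 induction for 20 h at ambient temperature; inhibition read as reduced luminescence.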
% is set by controls: 0 for no effect and ±100 for the full control effect; potency is the fitted concentration of half-maximal effect.

Protein sequences, listed by entry. Tags and fused reporters are not part of them. Lines headed by an entry give the natural chain unless they say otherwise; changes in a name come on top.
UniProt P51450: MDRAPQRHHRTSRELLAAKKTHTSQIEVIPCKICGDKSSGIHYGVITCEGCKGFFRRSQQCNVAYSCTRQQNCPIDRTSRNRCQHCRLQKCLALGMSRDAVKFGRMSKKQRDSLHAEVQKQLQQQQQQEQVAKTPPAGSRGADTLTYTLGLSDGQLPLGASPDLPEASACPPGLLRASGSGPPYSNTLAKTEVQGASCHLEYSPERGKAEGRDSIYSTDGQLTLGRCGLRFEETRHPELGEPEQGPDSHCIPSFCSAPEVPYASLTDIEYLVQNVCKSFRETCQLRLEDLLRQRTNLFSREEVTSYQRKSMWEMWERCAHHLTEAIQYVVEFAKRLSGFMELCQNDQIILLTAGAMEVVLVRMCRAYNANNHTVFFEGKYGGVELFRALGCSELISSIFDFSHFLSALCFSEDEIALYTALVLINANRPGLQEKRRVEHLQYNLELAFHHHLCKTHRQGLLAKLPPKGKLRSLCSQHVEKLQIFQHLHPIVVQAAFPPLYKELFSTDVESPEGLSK

| Compound | Potency | activity change, negative = inhibition |
| --- | --- | --- |
| CC(C)c1ccccc1NC(=S)N(C)C | inconclusive: 35.5 µM [inhibitor, single point] |  |
| O=S(=O)(c1ccccc1)N1CCN=C1SCc1ccc(Cl)c(Cl)c1 | inconclusive: 11.2 µM [activator, partial curve] |  |
| Cc1sc(NC(=O)c2sc3nc4c(C)cccc4cc3c2N)c(C#N)c1C | inconclusive: 11.2 µM [inhibitor, partial curve] |  |
| CC1(C)CC(=O)C2=C(C1)c1c(ccc3ccccc13)NC2c1cc([N+](=O)[O-])cc([N+](=O)[O-])c1O (stereo unspecified) | inconclusive: 35.5 µM [inhibitor, single point] |  |
| N#Cc1ccc(/C=C\c2nccc3c2[nH]c2ccccc23)cc1 | active: 0.447 µM |  |
| CCc1nc(N2CCN(C(C)=O)CC2)c2c3c(sc2n1)CCCC3 |  | inactive: 27.6% |
| CN(C)NC(=S)Nc1cccc(Cl)c1 | active: 2.24 µM |  |
| C[C@@H](C(=O)NCc1ccccc1)[C@@H]1C[C@@]1(C)[C@@H](NC(=O)OCc1ccccc1)c1ccccc1 | inconclusive: 15.8 µM [activator, partial curve, poor fit] |  |
| CC(C)CCNC1c2ccccc2C(=O)N1Cc1ccccc1 (stereo unspecified) |  | inactive: 13.3% |
| CC(C)C[C@H](NC(=O)c1[nH]cnc1C(=O)N[C@@H](C)C(=O)OC(C)(C)C)C(=O)OC(C)(C)C | active: 6.31 µM |  |
| COc1cc(OC)c2ccc(=O)oc2c1C(CCN1CCOCC1)c1ccc(N(C)C)cc1 (stereo unspecified) |  | inactive: -2.68% |
| COc1ccc(NC(=O)C2CC(=O)n3cnnc3S2)cc1 (stereo unspecified) | inconclusive: 22.4 µM [inhibitor, single point] |  |
| O=C(/C=C/c1ccc(Cl)cc1Cl)N(Cc1ccc(Cl)cc1)C1CCS(=O)(=O)C1 (stereo unspecified) | inconclusive: 12.6 µM [activator, partial curve] |  |
| COc1ccc(C(C)=O)cc1COc1ccc(-n2cnnn2)cc1 |  | inactive: -1.03% |
| CC(C)C[C@H](NC(=O)[C@H](CCCCN)NC(=O)[C@H](CCC(N)=O)NC(=O)[C@H](Cc1cnc[nH]1)NC(=O)[C@H](Cc1cnc[nH]1)NC(=O)[C@@H](N)C(C)C)C(=O)N[C@H](C(=O)N[C@@H](Cc1ccccc1)C(=O)N[C@@H](Cc1ccccc1)C(=O)N[C@@H](C)C(=O)N[C@@H](CCC(=O)O)C(=O)N[C@@H](CC(=O)O)C(=O)N[C@H](C(=O)NCC(=O)N[C@@H](CO)C(=O)N[C@@H](CC(N)=O)C(=O)N[C@@H](CCCCN)C(=O)O)C(C)C)C(C)C |  | inactive: 2.13% |
| CCCn1c(N)c(C(=O)CSc2nc(C)cs2)c(=O)[nH]c1=O |  | inactive: -2.03% |
| CCOC(=O)c1ccc(NC(=O)c2nc[nH]c2C(=O)N[C@H](C)c2ccccc2)cc1 | active: 2.82 µM |  |
| Cn1c(SCC(=O)c2ccccc2F)nnc1C1CC1 | inconclusive: 35.5 µM [inhibitor, single point] |  |
| COC(=O)CN1C(=O)[C@H]2[C@@H](/C=C/c3ccccc3)N3C(=O)CN(CCO)C(=O)[C@@]3(Cc3ccccc3)[C@H]2C1=O |  | inactive: -2.49% |
| CC(C)NC(=O)c1onc(CSc2ccc(C(C)C)cc2)c1C(=O)O | inconclusive: 20 µM [inhibitor, single point] |  |
| COc1cc(Cl)c(S(=O)(=O)NCc2cccnc2)cc1Cl |  | inactive: 27.7% |
| COc1ccc(/C=N/NC(N)=S)cc1 | active: 11.2 µM |  |
| Cc1nn(Cc2ccc(F)cc2)c(Cl)c1/C=N/NC(=O)c1cccnc1 | inconclusive: 11.2 µM [activator, partial curve] |  |
| O=C(Nc1ccc(Cl)c(Cl)c1)c1cccc(S(=O)(=O)NCc2cccnc2)c1 | inconclusive: 20 µM [activator, single point] |  |

Quoted at random: six records from the list.

| Compound | Potency | activity change, negative = inhibition |
| --- | --- | --- |
| Cn1c(SCC(=O)c2ccccc2F)nnc1C1CC1 | inconclusive: 35.5 µM [inhibitor, single point] |  |
| Cc1sc(NC(=O)c2sc3nc4c(C)cccc4cc3c2N)c(C#N)c1C | inconclusive: 11.2 µM [inhibitor, partial curve] |  |
| CCc1nc(N2CCN(C(C)=O)CC2)c2c3c(sc2n1)CCCC3 |  | inactive: 27.6% |
| COC(=O)CN1C(=O)[C@H]2[C@@H](/C=C/c3ccccc3)N3C(=O)CN(CCO)C(=O)[C@@]3(Cc3ccccc3)[C@H]2C1=O |  | inactive: -2.49% |
| CC(C)CCNC1c2ccccc2C(=O)N1Cc1ccccc1 (stereo unspecified) |  | inactive: 13.3% |
| COc1ccc(/C=N/NC(N)=S)cc1 | active: 11.2 µM |  |

(further entries)

| Compound | Potency | activity change, negative = inhibition |
| --- | --- | --- |
| CC(C)CC(=O)NC(=S)Nc1cccc(NC(=O)c2ccccc2)c1 | inconclusive: 22.4 µM [inhibitor, single point] |  |
| CCN1C(=S)N[C@@H](CCc2ccccc2)[C@H](C(=O)OC)[C@H]1C | active: 2.24 µM |  |
| COc1ccc(-c2nc(-c3ccc(NC(=O)c4ccncc4)cc3)no2)cc1OC | inconclusive: 0.005 µM [activator, full curve, poor fit] |  |
| Fc1ccc(C[n+]2csc3ccccc32)cc1 | inconclusive: 35.5 µM [inhibitor, single point] |  |
| CC(C)C(=O)Nc1cccc(NC(=S)NC(=O)c2ccc(Cl)cc2)c1 | active: 6.31 µM |  |
| Cc1ccsc1CN(C)C(=O)c1ccc(Oc2ccccc2)cc1 | inconclusive: 35.5 µM [activator, single point] |  |
| O=c1cc(N2CCCCC2)c(-c2ccccc2)nn1Cc1ccccc1Cl | inconclusive: 7.08 µM [activator, partial curve, poor fit] |  |
| COc1cccc(NC(=O)c2ncn[nH]2)c1 | inconclusive: 35.5 µM [inhibitor, single point] |  |
| CCOC(=O)N1CCC(NC(=O)C2CCCN(c3nc4ccccc4o3)C2)CC1 (stereo unspecified) | inconclusive: 35.5 µM [activator, single point] |  |
| Cc1ccc(OCC(=O)N/N=C\c2cn(C)c3ccccc23)c([N+](=O)[O-])c1 | active: 11.2 µM |  |
| Cn1nc(-c2ccc(Cl)cc2)cc1NC(=O)CC(C)(C)CC(=O)O | inconclusive: 11.2 µM [activator, partial curve] |  |
| Cc1cc(C)nc(N/N=C2/CCSc3ccc(F)cc32)n1 | inconclusive: 35.5 µM [inhibitor, single point] |  |
| Cc1ccc(-c2c3c(nc4sc(C(N)=O)c(N)c24)CCCC3)o1 |  | inactive: 10% |
| Cc1cccc(N2CCN(C(=O)CN3C(=O)C4CC=CCC4C3=O)CC2)c1C (stereo unspecified) | inconclusive: 10 µM [activator, partial curve] |  |
| COc1cc2nc(=S)n3[nH]c(CCn4nc(C)cc4C)nc3c2cc1OC | active: 0.0562 µM |  |
| Cc1cc(C)c(S(=O)(=O)N2CCOC2CNC(=O)C(=O)NCCCn2ccnc2)c(C)c1 (stereo unspecified) |  | inactive: -0.841% |
| CCN(CC)CCOC(=O)c1ccc(Cl)cc1Cl |  | inactive: -19.6% |
| CC(O)/C=C/c1ccc2ccccc2n1 (stereo unspecified) | inconclusive: 22.4 µM [inhibitor, single point] |  |
| C=CCn1cc(/C=N\NC(=O)c2cc3c(ccc4ccccc43)o2)c2ccccc21 | active: 5.62 µM |  |
| CCCn1nnnc1NC(=O)COc1ccc(CC)cc1 | active: 10 µM |  |
| COc1ccc(C2=NC(c3ccccc3)CO2)cc1 (stereo unspecified) | active: 10 µM |  |
| CC(=O)Nc1cccc(NC(=O)Nc2ccc(C)c(Cl)c2)c1 | inconclusive: 1 µM [activator, full curve, poor fit] |  |
| Cc1nn(C2CCS(=O)(=O)C2)c(Cl)c1/C=C/C(=O)OCC(=O)c1c[nH]c2ccccc12 (stereo unspecified) | inconclusive: 11.2 µM [activator, single point] |  |
| COc1cc(CN2CCC(n3nccc3NC(=O)CCCc3ccccc3)CC2)ccc1F | inconclusive: 20 µM [activator, single point] |  |

| Compound | Potency | activity change, negative = inhibition |
| --- | --- | --- |
| O=C(NN=C1c2ccccc2-c2ccccc21)c1cccc(Br)c1 | active: 1.78 µM |  |
| O=C(O)c1cc(O)c2c(c1)C(=O)c1cccc(O)c1C2=O | inconclusive: 28.2 µM [inhibitor, single point] |  |
| COc1cccc(C(=O)NCCNC(=O)c2cnccn2)c1 | inconclusive: 35.5 µM [activator, single point] |  |
| O=C(O)CC1=C(Nc2ccccc2)C(=O)N(c2ccccc2)C1c1ccc(Br)cc1 (stereo unspecified) | inconclusive: 10 µM [activator, partial curve] |  |
| Cc1ccccc1-n1nnc2c(=O)oc3ccccc3c21 | active: 7.94 µM |  |
| N#CC(C#N)=C1C=CC=CN1/C(=C\c1ccco1)C(=O)c1ccc(Br)cc1 | active: 3.55 µM |  |
| CN1CC[C@@]2(CCCN(S(=O)(=O)c3ccccc3)C2)C1 |  | inactive: -18.6% |
| CCN(CC)S(=O)(=O)c1ccc(OCC(=O)NC2CCS(=O)(=O)C2)c([N+](=O)[O-])c1 (stereo unspecified) | inconclusive: 35.5 µM [inhibitor, single point] |  |
| COC(=O)C1=C(C)N(Cc2ccccc2)C(=NCCc2c[nH]c3ccccc23)N[C@H]1c1ccccc1 | inconclusive: 35.5 µM [activator, single point] |  |
| CC(=O)N1CC=CC1(CC(C)C)C(=O)NCC1CC1 (stereo unspecified) |  | inactive: 30.5% |
| CCCNC(=O)c1nnsc1S(=O)c1ccc(Cl)cc1 (stereo unspecified) | active: 1.12 µM |  |
| COc1ccc(-c2nnc3ccc(SCC(=O)Nc4nccs4)nn23)cc1OC | inconclusive: 3.16 µM [activator, partial curve] |  |
| O=C(CCN1CCCCO1)N1CCCC(Nc2ccc(F)cc2)C1 (stereo unspecified) |  | inactive: 1.03% |
| Cc1c(NS(=O)(=O)c2ccc([N+](=O)[O-])cc2)c(=O)n(-c2ccccc2)n1C |  | inactive: -13.8% |
| CCCc1cc(C(=O)Nc2sc(C)c(CC)c2C#N)no1 | inconclusive: 35.5 µM [inhibitor, single point] |  |
| CCCC(=O)N(CCN1CCOCC1)c1nc2cc(C)c(C)cc2s1 |  | inactive: -7.73% |
| Nc1cc[n+](CC(=O)c2ccccc2)cc1 | inconclusive: 17.8 µM [activator, single point] |  |
| CCn1c(-c2ccc3ncccc3c2)n[nH]c1=S | active: 11.2 µM |  |
| Cc1ccc(/C=N/Nc2nncc(-c3ccccc3)n2)o1 | active: 8.91 µM |  |
| Cc1ccc(-n2cc(CNCCN3CCOC3=O)c(-c3cccc(C)c3)n2)cc1 | inconclusive: 35.5 µM [inhibitor, single point] |  |
| Cc1ccc(NC(=O)NCC2CCN(Cc3cccc(Cl)c3)CC2)cc1Cl | active: 20 µM |  |
| CC(C)CCN(C(=S)Nc1cccc(C(F)(F)F)c1)C(C)c1ccccn1 (stereo unspecified) | inconclusive: 35.5 µM [inhibitor, single point] |  |
| CC(C)CCNC(=O)c1ccc2c(c1)ncn2C1CCCCC1 | inconclusive: 14.1 µM [inhibitor, partial curve, poor fit] |  |
